Assay results reported in patent publication US8574585B2, “KDR peptides and vaccines comprising the same” (Oncotherapy Science, Inc., priority 2002, dated 2013).
Not every detail of the peptide structures is certain; ends, links or a residue may be inferred. Some compounds share one wording; it may come from a single statement. Where no end group is shown, it is not given here.

Tests used:
[1] = test system: peptide-pulsed TISI cells (HLA-A24/24); assay: CTL lines induced with peptide-pulsed DCs, four-hour 51Cr release assay; type: cell-based, human; conditions: in words
Procedure: Epstein-Barr virus (EBV)-immortalized B cell lines, TISI (HLA-A24/24) and EHM (HLA-A3/3), were provided by Takara Shuzo Biotechnology Research Laboratory.
HLA serotyping was performed using 7 mL of peripheral blood collected from a healthy subject. Peripheral blood mononuclear lymphocytes (PBMCs) were isolated from HLA-A24-positive peripheral blood using Ficoll Paque (Pharmacia) specific gravity centrifugation.
The obtained PBMCs were left to stand for ten hours in a culture flask (Corning, 43072). After removing the suspended cells, the cells that adhered to the flask were cultured in AIM-V medium (Invitrogen) supplemented with 2% autoserum by adding 1,000 U/mL of human GM-CSF (provided by Kirin Brewery), and 1,000 U/mL of human IL-4 (Genzyme). Five days later, the cells were cultured for another 48 hours in 10 μg/mL of OK-432 (provided by Chugai Pharmaceutical Co., Ltd.), and were used as antigen-presenting cells for CTL induction.
The resulting DCs were mixed with CD8-positive cells selected by magnetic beads (Dynabeads M-450 and Detachabeads) from PBMC, at a ratio of 1:20 or 1:2, and then cultured in a 48-well plate (Corning), in the presence of 10 ng/mL of human IL-7 (Genzyme). Three days later, the final concentration of 10 U/mL of IL-2 (Sigma) was added to the culture. And seven and 14 days later, the same DCs were stimulated to induce CTLs, and 20 days later, cytotoxicity was measured for each well using peptide-pulsed TISI cells as targets. Only the positive wells were cultured by a stimulation method with allo-PBMC, EBV-immortalized B cell lines (EHM), and 30 ng/mL of anti-CD3 antibody. CTLs were functionally analyzed 14 days later.
Cytotoxic activity was evaluated by a four-hour ^51Cr release assay. A concentration of 20 μg/mL of the target cells were pulsed with peptides overnight. The target cells were labeled with 100 μCi of Na2^51CrO4 at 37° C. for one hour, and then washed three times with RPMI1640. The target cells (1×10^4/100 μL) and 100 μL of effector cells at various concentrations with a total volume of 200 μL were placed into a U-shaped 96-well microtiter plate (Corning), and cultured at 37° C. in a CO2 incubator for four hours. After culturing, 100 μL of supernatant was collected from each well, and measured using a γ counter. Natural decay was the radioactivity of the target cells and the medium, and maximum decay was the radioactivity of the target cells and 1 M HCl. Cytotoxic activity (percentage of specific lysis) was calculated by the following formula: Cytotoxic activity (% Cytotoxicity)=(Experimental decay−natural decay)/(maximum decay−natural decay)×100

PBMC of cancer patients = assay: Cancer patient-derived CTL precursor, IFN-γ production of peptide-stimulated PBMC; type: cell-based, human; conditions: for POSITIVE WELLS, PATIENT A: HLA-A24-type colon cancer patient, IFN-γ two times or more than HIV control peptide; for POSITIVE WELLS, PATIENT B / POSITIVE WELLS, PATIENT C: HLA-A24-type melanoma patient; for POSITIVE WELLS, PATIENT D: HLA-A02-type colon cancer patient
Procedure: Using the method reported by Maeda, Y. et al., Br. J. Cancer, 87:796-804 (2002), peptide-specific CTLs were detected in PBMC. First, PBMC collected from patients (1×10^5 cells) were incubated with 10 μM of each peptide in a U-shaped bottom 96-well plate comprising 200 μL medium. The medium consisted of 45% RPMI1640 medium, 45% AIM-V medium, 10% FBS, 100 U/mL interleukin-2 (IL-2), and […] MEM non-essential amino acid solution. Every three days, half of the medium was removed and replaced with fresh medium containing the corresponding peptide (20 μM). After incubation for twelve days, cells were collected to test IFN-γ production ability in response to each peptide. When the amount of IFN-γ produced by peptide-stimulated PBMC in response to a corresponding peptide was two times or more than the amount produced in response to the control HIV peptide, that test peptide was deemed positive.
In the table, patients A, B, and C are HLA-A24-type patients; and patient D is an HLA-A02-type patient. Patients A and D are colon cancer patients; and patients B and C are melanoma patients. CMVs refer to the cytomegalovirus-derived peptides used as positive controls. The peptides with high A-24 binding affinity are described in Kuzushima, K. et al., Blood 2001, 98(6):p 1872-1881, and such; and the peptides with high A-2 binding affinity are described in Solache, A. et al., J. Immunol. 1999, 163(10); p 5512-5518, and such.

cytotoxic T cells (CTL) = assay: Examination of CTL inducibility of peptides (summary); type: cell-based; conditions: in words
Procedure: However, it is necessary to determine whether the candidate peptides, which are selected using high binding affinity as an indicator, actually have CTL inducibility or not. Confirmation of CTL inducibility is carried out by inducing antigen-presenting cells comprising human MHC antigens (such as B-lymphocytes, macrophages, and dendritic cells), more specifically dendritic cells derived from human peripheral blood mononuclear leukocytes; stimulating the cells with the peptides; mixing the cells with CD8-positive cells; and then measuring cytotoxicity against the target cells. As the reaction system, transgenic animals generated to express a human HLA antigen may be used (for example, those described in Hum. Immunol. 2000 August; 61(8):764-79 Related Articles, Books, Linkout Induction of CTL response by a minimal epitope vaccine in HLA A*0201/DR1 transgenic mice: dependence on HLA class II restricted T(H) response, BenMohamed, L., Krishnan, R., Longmate, J., Auge, C., Low, L., Primus, J., and Diamond, D. J.). For example, by radiolabeling the target cells with ^51Cr or such, cytotoxicity can be calculated from the radioactivity released from the target cells. Alternatively, the activity can be examined by measuring the IFN-γ produced and released by CTL in the presence of antigen-presenting cells that have immobilized peptides, and visualizing the inhibition zone on the media using anti-IFN-γ monoclonal antibodies.
Furthermore, nonapeptides selected from peptides comprising the amino acid sequences of […] (SEQ ID NO:2), […]

[2] = test system: transgenic mice that express human HLA (A0201); assay: IFN-γ ELISPOT of splenocytes from peptide-vaccinated A2/Kb transgenic mice; type: in vivo, mouse; conditions: for epitope peptide obtained by IFN-γ ELISPOT assay: HLA-A*0201, in words; for ELISPOT ANALYSIS ×40 (SFC) MOUSE1 pep(+) / ELISPOT ANALYSIS ×40 (SFC) MOUSE1 pep(−): mouse 1; for ELISPOT ANALYSIS ×40 (SFC) MOUSE1 pep(+) / ELISPOT ANALYSIS ×40 (SFC) MOUSE2 pep(+): peptide-pulsed T2 cells; for ELISPOT ANALYSIS ×40 (SFC) MOUSE1 pep(−) / ELISPOT ANALYSIS ×40 (SFC) MOUSE2 pep(−): unpulsed T2 cells; for ELISPOT ANALYSIS ×40 (SFC) MOUSE2 pep(+) / ELISPOT ANALYSIS ×40 (SFC) MOUSE2 pep(−): mouse 2
Procedure: Six- to eight-week old BALB/C(H-2^d) mice were obtained from CLEA Japan. A2/Kb transgenic mice (TGM) were provided by F. Jim Primus, Ph.D. at Vanderbilt-Ingram Cancer Center. T2 cells (TAP-deficient and HLA-A*0201-positive cells) were provided by Prof. H. Shiku at Mie University's Third Department of Internal Medicine. […]
Next, 100 μg of each peptide, 140 μg of HbcAg120-140 helper peptide, and 100 μL of IFA were mixed (200 μL in total). The mixture was administered subcutaneously to the right abdomen on day 0, and to the left abdomen on day 11. The spleens of the vaccinated mice were collected on day 21, erythrocytes were hemolytically removed using red lysis buffer (Sigma), and a portion of those cells were used as responder cells for IFN-γ ELISPOT assay. The remaining cells were placed into a 24-well plate (Corning) at 6×10^6 cells/well with feeder cells at a ratio of 3:1, and stimulated again. Their cytotoxicity was measured five days later. Erythrocyte-free splenocytes, which were derived from syngeneic mice, were cultured for three days in the presence of 25 μg/mL of lipopolysaccharide (LPS) to use as feeder cells.
In this Example, the IFN-γ ELISPOT method was used to evaluate CTL inducibility according to SPOTs produced by IFN-γ producing cells. Flat-bottomed 96-well multiscreen plate MAHA S45 (Millipore) was treated at 4° C. overnight with anti-mouse IFN-γ monoclonal antibody (Pharmingen). On the following day, the plate washed with PBS containing 0.05% Tween 20, and then reacted with a blocking buffer at room temperature for two hours. Thereafter, peptide-pulsed T2 cells and unpulsed T2 cells were added to each well at 10^5 cells/100 μL. The splenocytes of vaccinated mice were further added to each well at a maximum of 4×10^6 cells/100 μL (200 μL in total), and cultured overnight at 37° C. The next day, each well was washed, and reacted for two hours with biotinylated rat anti-mouse IFN-γ antibodies (Pharmingen). After washing the plate thoroughly, Extravidin was added to each well and reacted at room temperature for two hours. After washing, alkaline phosphatase conjugate substrate (BIO-RAD) was added to the wells, which were left to stand at room temperature for five minutes. The blue spots resulting from IFN-γ production were measured using KS ELISPOT compact release (Carl Zeiss).
Specific blue spots were determined as: Specific blue spot=(TISI(+)SPOT−TISI(−)SPOT) Those satisfying the following condition were considered effective: TISI(+)SPOT/TISI(−)SPOT≧2

[3] = test system: B16 cell-induced angiogenic response in A2/Kb TGM; assay: Dorsal air sac (DAS) assay, B16 melanoma cells; type: in vivo, mouse
Procedure: The actual angiogenesis-inhibiting activity of peptide epitopes was evaluated in mice using a DAS assay (see, Clinical Cancer Research, Vol. 5, 2185-2191, August 1999; Cancer Research 62, 6116-6123, Nov. 1, 2002).
Specifically, a membrane filter was fixed to both sides of a chamber ring, and sterilized with ethylene oxide gas. B16 melanoma cells were prepared to 5×10^5 cells/0.15 mL, and injected into the chamber. Mice (A2/kb transgenic mice ([…])) were immobilized face down, and an air sac was produced by injecting 5 to 10 mL of air in to the murine dorsal hypoderm using a syringe. An approximately 1-cm incision was made to the lower part of the sac. The chamber ring, filled with cell suspension solution, was implanted in the dorsal hypoderm, and the skin was closed using a skin stapler. Six days after implantation, the mouse skin was decorticated together with the chamber, fixed in an extended form, and marked with a black rubber ring to observe the newly formed blood vessels using a microscope. Blood vessels that are newly formed by angiogenic factors released from malignant tumor cells characteristically run in a zigzag manner, and are morphologically different from naturally occurring background blood vessels. Therefore, blood vessels of 3-mm or longer within the rubber ring and running in a zigzag manner were determined to be newly formed blood vessels, and were evaluated using an angiogenesis index (AI). AIs was evaluated into six levels, from 0 to 5 according to the number of tortuous blood vessels. All those with five or more tortuous blood vessels were determined to be 5.
Vaccination was performed 14 days prior to chamber implantation, and repeated after one week (a total of two times) by respectively injecting 5×10^4 cells of HBSS, DC alone, or peptide-pulsed DC, to the tail vein. The results are shown in FIG. 17 and in Table 8, as shown below.

Sequence | effectiveness as epitope peptide (CTL line established) [1] | POSITIVE WELLS, PATIENT A (PBMC of cancer patients) | POSITIVE WELLS, PATIENT B (PBMC of cancer patients) | POSITIVE WELLS, PATIENT C (PBMC of cancer patients) | CTL inducibility (cytotoxic T cells (CTL)) | epitope peptide obtained by IFN-γ ELISPOT assay [2] | ELISPOT ANALYSIS ×40 (SFC) MOUSE1 pep(+) [2] | ELISPOT ANALYSIS ×40 (SFC) MOUSE1 pep(−) [2] | ELISPOT ANALYSIS ×40 (SFC) MOUSE2 pep(+) [2] | ELISPOT ANALYSIS ×40 (SFC) MOUSE2 pep(−) [2] | POSITIVE WELLS, PATIENT D (PBMC of cancer patients) | ANGIOGENESIS INDEX (AI) ([3]; DC pulsed with the peptide, vaccinated twice, AI 0 to 5) | formation of tortuous blood vessels ([3]; peptide-pulsed DC compared to DC alone, in words)
KWEFPRDRL [SEQ ID NO:11] | effective as epitope peptides | 11 | 3 | 0 | particularly high CTL inducibility | – | – | – | – | – | – | – | –
KLIEIGVQT [SEQ ID NO:34] | – | – | – | – | particularly high CTL inducibility | epitope peptides | 0 SFC | 0 SFC | 81 SFC | 5 SFC | 0 | – | –
YMISYAGMV [SEQ ID NO:40] | – | – | – | – | particularly high CTL inducibility | epitope peptides | 122 SFC | 6 SFC | 33 SFC | 11 SFC | 3 | (3.6 ± 0.5) | clearly suppressed
RFVPDGNRI [SEQ ID NO:8] | effective as epitope peptides | 12 | 4 | 1 | particularly high CTL inducibility | – | – | – | – | – | – | – | –
KNLDTLWKL [SEQ ID NO:10] | – | – | – | – | – | – | 0 SFC | 7 SFC | 0 SFC | 0 SFC | – | – | –
